Results: the supplement of paper PMC8104966
This is one part of the list. This data set is noisy: repeats of one test often differ as much as different tests do.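 U2OS cells carrying ACE2 were mixed with U2OS cells carrying full-length spike, and fusion was scored by imaging as the share of nuclei showing both cell types' fluorescent markers. A compound counts as an inhibitory hit when it is non-toxic and its fusion z-score falls below -3, meaning more than three standard deviations below the plate's DMSO wells.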

What follows are molecules tested on U2OS ACE2 x SARS-CoV-2 spike co-culture (assay: cell-cell fusion (fraction fused) z-score vs plate DMSO control; higher = more fusion). Conditions: 30 µM; 5 h; toxicity class: non-toxic, passed QC.

SMILES	cell-cell fusion (z-score)
C[C@]12CCC(=O)C=C1CC[C@@H]1[C@@H]2C(=O)C[C@@]2(C)[C@H]1CC[C@]2(O)C(=O)CO [Cortisone]	inactive: 1.62
O=C(O)Cc1cc(I)c(Oc2cc(I)c(O)c(I)c2)c(I)c1	inactive: 2.44
O=[N+]([O-])O[C@H]1CO[C@H]2[C@@H]1OC[C@H]2O[N+](=O)[O-]	inactive: 1.69
COc1ccc2c(c1)CC[C@@H]1[C@@H]2CC[C@]2(C)[C@H](NCCCCCCN3C(=O)C=CC3=O)CC[C@@H]12	inactive: 0.974
NC1(C(=O)O)CC1	inactive: 1.95
N#Cc1ccc(Oc2ccc3c(c2)COB3O)cc1 [Crisaborole]	inactive: 0.953
CN(C)c1ccc(O)c2c1C[C@H]1C[C@H]3[C@H](N(C)C)C(O)=C(C(N)=O)C(=O)[C@@]3(O)C(O)=C1C2=O.Cl [Minocycline hydrochloride]	inactive: 1.5
CC12NC(Cc3ccccc31)c1ccccc12.O=C(O)/C=C/C(=O)O (single isomer, unassigned; (-)) [(-)-MK-801 hydrogen maleate]	inactive: 1.95
C#C[C@]1(O)CCC2C3CCc4cc(OC)ccc4C3CC[C@@]21C (stereo not given in full)	inactive: 1.53
N[C@@H](CC(=O)O)C(=O)O [L-Aspartic acid]	inactive: 2.22
C[N+]1(C)CCC(OC(=O)C(O)(c2ccccc2)C2CCCC2)C1.[Br-] (stereo not given)	inactive: 2
Cc1ccc(C(=O)C(C)CN2CCCCC2)cc1.Cl (stereo not given)	inactive: 2.28
COc1ccccc1OCC(O)CO (stereo not given)	inactive: 1.93
CN(C)CCOC(c1ccc(Cl)cc1)c1ccccn1.O=C(O)/C=C\C(=O)O (stereo not given) [Carbinoxamine Maleate Salt]	inactive: 3.39
Cc1ccc(S(=O)(=O)[N-]Cl)cc1.[Na+]	inactive: 1.01
O=C(N[C@H](CO)[C@H](O)c1ccc([N+](=O)[O-])cc1)C(Cl)Cl [Chloramphenicol]	inactive: 3.02
O=C(NC(=O)c1c(F)cccc1F)Nc1cc(Cl)c(OC(F)(F)C(F)C(F)(F)F)cc1Cl (stereo not given)	inactive: 2.86
CCCC(CCC)C(=O)O.CCCC(CCC)C(=O)[O-].[Na+] [Divalproex Sodium]	inactive: 1.65
Nc1ccc(-c2ccc3ncc4ccc(=O)n(-c5cccc(C(F)(F)F)c5)c4c3c2)cn1 [Torin 2]	inactive: 1.82
CC#CCOC(=O)c1c(C)nc2sc3c(c2c1N)CCC(O)C3 (stereo not given)	inactive: 0.934
CNc1ccc2oc(C[C@H]3O[C@@]4(CC[C@H]3C)O[C@H]([C@H](C)C(=O)c3ccc[nH]3)[C@H](C)C[C@H]4C)nc2c1C(=O)O [Calcimycin]	inactive: 0.958
CCN1/C(=C/C(C)=O)Sc2ccc(OC)cc21	inactive: 0.258
C[C@]12CCC3c4ccc(OC(=O)N(CCCl)CCCl)cc4CCC3C1CC[C@@H]2O (stereo not given in full)	inactive: -1.71
C[C@@H]([C@H](O)c1ccccc1)N(C)C	inactive: 1.35

SMILES	cell-cell fusion (z-score)
Cl.Cl.OCCN1CCN(CC/C=C2/c3ccccc3Sc3ccc(C(F)(F)F)cc32)CC1 [cis-(Z)-Flupenthixol dihydrochloride]	inactive: 3.05
CNC[C@H](O)c1cccc(O)c1.Cl [Phenylephrine hydrochloride] [listing 1 of 2 here]	inactive: -0.0249
CCC(=O)O[C@H](CC(=O)O)C[N+](C)(C)C.[Cl-]	inactive: 2.4
Cc1nc(N)sc1-c1ccnc(Nc2ccc(N3CCOCC3)cc2)n1	inactive: -0.788
CCN[C@@H]1C[C@H](N)[C@@H](O[C@H]2OC(CN)=CC[C@H]2N)[C@H](O)[C@H]1OC1OC[C@](C)(O)[C@H](NC)[C@H]1O.O=S(=O)(O)O.O=S(=O)(O)O (stereo not given in full)	inactive: 4.1
CN1C(C(=O)Nc2ccccn2)=C(O)c2ccccc2S1(=O)=O [Piroxicam]	inactive: 1.84
CC(C)CCCC(C)C1CCC2C3CC[C@H]4C[C@@H](O)CC[C@]4(C)C3CC[C@]12C (stereo partly drawn) [5alpha-CHOLESTANOL]	inactive: 2.92
CCCc1nc(C)c2c(=O)[nH]c(-c3cc(S(=O)(=O)N4CCN(CC)CC4)ccc3OCC)nn12.Cl.O.O.O [Vardenafil hydrochloride trihydrate]	inactive: 2.4
O=c1[nH]c2cc(C(F)(F)F)ccc2n1-c1cc(C(F)(F)F)ccc1O	inactive: 1.68
Cl.NC12CC3CC(CC(C3)C1)C2 [Amantadine hydrochloride]	inactive: 2.89
CC12CCC3C(CC3(C)C)C(C)(CCC1=O)O2 (stereo not given)	inactive: 2.55
C[N+]1(C)CCC(OC(=O)C(c2ccccc2)c2ccccc2)CC1.[I-] [4-DAMP methiodide]	inactive: 3.78
C[N+]1(C)CCC(OC(=O)C(c2ccccc2)c2ccccc2)CC1.[I-]	inactive: 2.27
N=C(N)NCCC[C@@H](NC(=O)[C@@H]1CCCN1C(=O)[C@@H]1CSSCCC(=O)N[C@@H](Cc2ccc(O)cc2)C(=O)N[C@@H](Cc2ccccc2)C(=O)N[C@@H](CCC(N)=O)C(=O)N[C@@H](CC(N)=O)C(=O)N1)C(=O)NCC(N)=O [Desmopressin]	inactive: 2.18
CCCn1c(=O)c2c(ncn2C)n(CCC)c1=O [1,3-Dipropyl-7-methylxanthine]	inactive: 1.93
CC1=C2[C@H]3OC(=O)[C@@H](C)[C@@H]3CC[C@@]2(C)C=CC1=O	inactive: 2.02
COC(=O)C1=CO[C@@H](C)C2CN3CC[C@]4(C(=O)Nc5ccccc54)C3C[C@H]12 (stereo not given in full)	inactive: 1.41
C[C@]12CC[C@@H]3c4ccc(OC(=O)N(CCCl)CCCl)cc4CC[C@H]3[C@@H]1CC[C@@H]2OP(=O)([O-])[O-].[Na+].[Na+] [Estramustine phosphate sodium]	inactive: 2.09
CN1CCc2cccc(Cl)c2CC1.Cl	inactive: 2.18
CC(=O)N[C@@H](Cc1c[nH]c2ccccc12)C(=O)OCc1cc(C(F)(F)F)cc(C(F)(F)F)c1	inactive: 2.68
CCn1cc(C(=O)[O-])c(=O)c2cc3c(cc21)OCO3.[K+]	inactive: 2.6
CN1C[C@@H]2c3ccccc3Oc3ccc(Cl)cc3[C@H]2C1.O=C(O)/C=C\C(=O)O [Asenapine Maleate]	inactive: 1.42
NCCC(=O)N[C@@H](Cc1c[nH]cn1)C(=O)O	inactive: 1.73
C/C=C/C(=O)N(CC)c1ccccc1C	inactive: 2.05

Some of the entries so far, comma-delimited:
SMILES,cell-cell fusion (z-score)
CC1=C2[C@H]3OC(=O)[C@@H](C)[C@@H]3CC[C@@]2(C)C=CC1=O,inactive: 2.02
CCn1cc(C(=O)[O-])c(=O)c2cc3c(cc21)OCO3.[K+],inactive: 2.6

Further records.

SMILES	cell-cell fusion (z-score)
O=C(Nc1ccc2[nH]ncc2c1)C1CCC1 [Rhodblock 6]	inactive: 0.631
C[C@@H](O)[C@H]1C(=O)N2C(C(=O)O)=C(SCCNC=N)C[C@H]12.O	inactive: -0.0539
C#C[C@]1(O)CC[C@H]2[C@@H]3CCC4=Cc5oncc5CC4(C)[C@H]3CCC21C (stereo not given in full) [Danazol]	inactive: 3.12
O=[N+]([O-])c1cccc2c(Br)n[nH]c12 [3-Bromo-7-nitroindazole]	inactive: 1.64
CN1C(=O)CCS(=O)(=O)C1c1ccc(Cl)cc1 (stereo not given) [Chlormezanone]	inactive: 3.02
CN1C(=O)CCS(=O)(=O)C1c1ccc(Cl)cc1 (stereo not given)	inactive: 1.01
O=C(O)CC(O)(CC(=O)O)C(=O)O [Citric acid]	inactive: 1.91
Cc1c(-c2ccccc2)oc2c(C(=O)OCCN3CCCCC3)cccc2c1=O.Cl [Flavoxate hydrochloride]	inactive: 2.17
CNC[C@H](O)c1cccc(O)c1.Cl [Phenylephrine hydrochloride] [listing 2 of 2 here]	inactive: -0.785
CC(O)c1ccc(S(=O)(=O)NC(=O)NC2CCCCC2)cc1 (stereo not given) [Hydroxyhexamide]	inactive: 1.87
O=C(O)c1ccc2c(c1)OCO2	inactive: 2.57
CC(C)(C)NCC(O)c1ccc(O)c(CO)c1.CC(C)(C)NCC(O)c1ccc(O)c(CO)c1.O=S(=O)(O)O (stereo not given) [Salbutamol Sulfate]	inactive: -0.46
Cc1ccnc2c1NC(=O)c1cccnc1N2C1CC1 [Nevirapine]	inactive: 1.7
N[C@@H](C(=O)O)[C@@H](O)[C@H](O)[C@H](O)CO	inactive: 1.75
CN(C)CCC(c1ccc(Cl)cc1)c1ccccn1.O=C(O)/C=C\C(=O)O (stereo not given) [Chlorpheniramine maleate]	inactive: 4.47
CC(=O)N[C@@H](CC(=O)O)C(=O)N[C@@H](CCC(=O)O)C(=O)O	inactive: 1.03
NCC[C@H](O)C(=O)N[C@@H]1C[C@H](N)[C@@H](O[C@H]2O[C@H](CN)[C@@H](O)[C@H](O)[C@H]2O)[C@H](O)[C@H]1O[C@H]1O[C@H](CO)[C@@H](O)[C@H](N)[C@H]1O [Amikacin]	inactive: 2
CC(=O)O[C@@H]1CC2C(C)(C)C(=O)C=C[C@]2(C)C2CC[C@]3(C)C(=CC(=O)O[C@H]3c3ccoc3)[C@@]21C (stereo not given in full)	inactive: 0.963
Cc1nnc(C(C)C)n1[C@@H]1C[C@H]2CC[C@@H](C1)N2CC[C@H](NC(=O)C1CCC(F)(F)CC1)c1ccccc1 [Maraviroc]	inactive: 4.26
CCCNCC(O)COc1ccccc1C(=O)CCc1ccccc1 (stereo not given) [Propafenone]	inactive: 2.54
CCCN(CCC)S(=O)(=O)c1ccc(C(=O)O)cc1 [Probenecid]	inactive: 3.21
O=c1[nH]cc(F)c(=O)[nH]1 [Adrucil (Fluorouracil)]	inactive: 1.53
